Measurements: US11921118B2, “Methods for proteome labeling” (The Board of Trustees of the Leland Stanford Junior …, priority 2018, dated 2024)

Tested on: HEK293T proteins
Experiment: Codon usage analysis of TMT-quantified labeled proteins
Format: cell-based, human
Settings: TTT/TTC for Phe; TAT/TAC for Tyr
Description: FIG. 13: ScTyrY43G and MmPheT413G label proteins via both of their cognate codons. […] Proteins were TMT-labeled and quantified by mass spectrometry (FIG. 4). […] Data plotted as mean+SEM. *P<0.05; t-test.
Codon usage analysis. To determine whether ScTyrY43G and MmPheT413G are capable of labeling via both of their cognate codons (TAT and TAC for ScTyrY43G; and TTT and TTC for MmPheT413G), cDNA sequences of TMT-quantified HEK293T proteins were retrieved via the Ensembl human genome database (Human release 92). cDNA sequences were parsed into codon triplets and the number of the four aforementioned codons counted for each protein. […] This yielded a list of proteins that were labeled by ScTyrY43G or MmPheT413G uniquely via that codon.

Molecule	cognate codon preference of labeling
MmPheT413G: mouse phenylalanyl-tRNA synthetase with T413G substitution, charges AzF onto tRNA-Phe; SEQ ID NO:5 (protein) MADNPVLELLLRRLEVADGGLDSAELATQLGVEHQAVVGAVKSLQALGEVIEAELRSTKCWELTTEGEEIAREGSHEARVFRSIPLEGLVQSELMHLPSGKVGFSKAMSNKWIRVDKSAADGPRVFRVVDSIEDEVQKRLQLVQAGQAEKLAEKERNELRKRKLLTEVILKTYWVSKGKAFSTSVSKQEAELSPEMISSGSWRDRPFKPYNFSARGVLPDSGHLHPLLKVRSQFRQIFLEMGFTEMPTDNFIESSFWNFDALFQPQQHPARDQHDTFFLRDPAEALQLPMGYVQRVKRTHSQGGYGSQGYKYTWKLEEARKNLLRTHTTAASARALYQLAQKKPFTPAKYFSIDRVFRNETLDATHLAEFHQIEGVIADHGLTLGHLMGVLREFFTKLGITQLRFKPAYNPYGEPSMEVFSYHQGLKKWVEVGNSGVFRPEMLLPMGLPENVSVIAWGLSLERPTMIKYGINNIRELVGHKVNLQMVYDSPVCRLDIEPRSSKTQEAA	preferentially labels the TTT codon
ScTyrY43G: yeast tyrosyl-tRNA synthetase with Y43G substitution, charges AzY onto tRNA-Tyr; SEQ ID NO:4 (protein) MSSAATVDPNEAFGLITKNLQEVLNPQIIKDVLEVQKRHLKLGWGTAPTGRPHCGYFVPMTKLADFLKAGCEVTVLLADLHAFLDNMKAPLEVVNYRAKYYELTIKAILRSINVPIEKLKFVVGSSYQLTPDYTMDIFRLSNIVSQNDAKRAGADVVKQVANPLLSGLIYPLMQALDEQFLDVDCQFGGVDQRKIFVLAEENLPSLGYKKRAHLMNPMVPGLAQGGKMSASDPNSKIDLLEEPKQVKKKINSAFCSPGNVEENGLLSFVQYVIAPIQELKFGTNHFEFFIDRPEKFGGPITYKSFEEMKLAFKEEKLSPPDLKIGVADAINELLEPIRQEFADNKEFQEASEKGYPVATPQKSKKAKKPKNKGTKYPGATKTNEIATKLEETKL	labels both its cognate codons equally
